Source: PubChem BioAssay AID248 (DTP/NCI, 2004)
The list does not hold the whole screen: it gathers some chemical classes. Other doses and runs of a compound may be missing. T/C gives the treated animals as a percentage of the vehicle group. For survival time, this PubChem deposit counts one and a half times the control or more as active, and values a quarter to a half above the control carry no call in these data; other NCI protocols may use other cut-offs. Schedule codes are those of the source, taken here to give the interval after Q, in days (D) or hours (H), and the number of doses after X. Some entries show no survivor count and are marked so; the dose need not have been tolerated. Some entries hold several experiments; the values are given in rising order. Signs of the kind (2×) say how often a value occurs here. Some schedule codes hold Z or #, which are not explained here.

Test system: L1210 leukemia ip in BDF1 mice, survival T/C
Experiment: NCI In Vivo Anticancer Drug Screen. Data for tumor model L1210 Leukemia (intraperitoneal) in B6D2F1 (BDF1) mice
Conditions: T/C endpoint: mean survival time, higher T/C = longer survival

For CC(=O)OCC12CCC(C)=CC1OC1C(O)C(OC(C)=O)C2(C)C12CO2 (centres undefined), the T/C (dose: 0.02 mg/kg/injection, schedule: Q01DX009 (ip), vehicle: other) was 93 [survivor count not shown], 108 [survivor count not shown], 115 % of control [survivor count not shown], the T/C (dose: 0.05 mg/kg/injection, schedule: Q01DX009 (ip), vehicle: other) was 108 [survivor count not shown], 111 [survivor count not shown], 126 [survivor count not shown], 133 % of control [survivor count not shown] and the T/C (dose: 0.05 mg/kg/injection, schedule: Q04DX003 (ip), vehicle: other) was 124 % of control [survivor count not shown]. The T/C (dose: 0.05 mg/kg/injection, schedule: Q#A X026 (ip), vehicle: saline) was 97 % of control [survivor count not shown], the T/C (dose: 0.1 mg/kg/injection, schedule: Q01DX009 (ip), vehicle: other) was 111 [survivor count not shown], 116 [survivor count not shown], 119 % of control [survivor count not shown] (2×) and the T/C (dose: 0.1 mg/kg/injection, schedule: Q01DX013 (ip), vehicle: saline) was 117 % of control [survivor count not shown]. The T/C (dose: 0.1 mg/kg/injection, schedule: Q04DX003 (ip), vehicle: other) was 125 % of control [survivor count not shown], the T/C (dose: 0.1 mg/kg/injection, schedule: Q#A X026 (ip), vehicle: saline) was 108 % of control [survivor count not shown] and the T/C (dose: 0.13 mg/kg/injection, schedule: Q01DX009 (ip), vehicle: saline) was 118 % of control [survivor count not shown]. The T/C (dose: 0.2 mg/kg/injection, schedule: Q01DX009 (ip), vehicle: other) was 112 [survivor count not shown], 116 [survivor count not shown], 124 [survivor count not shown], 127 [survivor count not shown], 134 % of control [survivor count not shown], the T/C (dose: 0.2 mg/kg/injection, schedule: Q01DX013 (im), vehicle: saline) was 104 % of control [survivor count not shown] and the T/C (dose: 0.2 mg/kg/injection, schedule: Q01DX013 (ip), vehicle: saline) was 114 % of control [survivor count not shown]. For the same compound, the T/C (dose: 0.2 mg/kg/injection, schedule: Q01DX013 (sc), vehicle: saline) was 110 % of control [survivor count not shown], the T/C (dose: 0.2 mg/kg/injection, schedule: Q04DX003 (ip), vehicle: other) was 139 % of control [survivor count not shown] and the T/C (dose: 0.2 mg/kg/injection, schedule: Q#A X026 (ip), vehicle: saline) was 121 % of control [survivor count not shown]. The T/C (dose: 0.25 mg/kg/injection, schedule: Q01DX001 (ip), vehicle: saline) was 111 % of control [survivor count not shown], the T/C (dose: 0.25 mg/kg/injection, schedule: Q01DX009 (ip), vehicle: saline, evaluated on day 30) was 125 % of control [survivor count not shown] and the T/C (dose: 0.25 mg/kg/injection, schedule: Q01DX009 (ip), vehicle: saline, evaluated on day 60) was 114 % of control [survivor count not shown]. For the same compound, the T/C (dose: 0.25 mg/kg/injection, schedule: Q02DX005 (ip), vehicle: saline) was 125 % of control [survivor count not shown], the T/C (dose: 0.25 mg/kg/injection, schedule: Q04DX003 (ip), vehicle: saline) was 108 % of control [survivor count not shown] and the T/C (dose: 0.25 mg/kg/injection, schedule: Q05DX001 (ip), vehicle: saline) was 106 % of control [survivor count not shown]. The T/C (dose: 0.4 mg/kg/injection, schedule: Q01DX009 (ip), vehicle: other) was 119 [survivor count not shown], 129 [survivor count not shown], 138 [survivor count not shown], 140 [survivor count not shown], 178 % of control [survivor count not shown], the T/C (dose: 0.4 mg/kg/injection, schedule: Q01DX013 (im), vehicle: saline) was 110 % of control [survivor count not shown] and the T/C (dose: 0.4 mg/kg/injection, schedule: Q01DX013 (ip), vehicle: saline) was 139 % of control [survivor count not shown]. The T/C (dose: 0.4 mg/kg/injection, schedule: Q01DX013 (oral), vehicle: saline) was 98 % of control [survivor count not shown], the T/C (dose: 0.4 mg/kg/injection, schedule: Q01DX013 (sc), vehicle: saline) was 114 % of control [survivor count not shown] and the T/C (dose: 0.4 mg/kg/injection, schedule: Q04DX003 (ip), vehicle: other) was 143 % of control [survivor count not shown]. For the same compound, the T/C (dose: 0.4 mg/kg/injection, schedule: Q#A X026 (ip), vehicle: saline) was 117 % of control [survivor count not shown], the T/C (dose: 0.5 mg/kg/injection, schedule: Q01DX001 (ip), vehicle: saline) was 108 % of control [survivor count not shown] and the T/C (dose: 0.5 mg/kg/injection, schedule: Q01DX009 (ip), vehicle: acetone) was 126 % of control [survivor count not shown]. For the same compound, the T/C (dose: 0.5 mg/kg/injection, schedule: Q01DX009 (ip), vehicle: saline, evaluated on day 30) was 127 % of control [survivor count not shown], the T/C (dose: 0.5 mg/kg/injection, schedule: Q01DX009 (ip), vehicle: saline, evaluated on day 60) was 120 % of control [survivor count not shown] and the T/C (dose: 0.5 mg/kg/injection, schedule: Q01DX009 (sc), vehicle: saline) was 112 % of control [survivor count not shown]. For the same compound, the T/C (dose: 0.5 mg/kg/injection, schedule: Q02DX005 (ip), vehicle: saline) was 120 % of control [survivor count not shown], the T/C (dose: 0.5 mg/kg/injection, schedule: Q03DX003 (ip), vehicle: other) was 108 % of control [survivor count not shown] and the T/C (dose: 0.5 mg/kg/injection, schedule: Q04DX003 (ip), vehicle: saline) was 120 % of control [survivor count not shown]. For the same compound, the T/C (dose: 0.5 mg/kg/injection, schedule: Q05DX001 (ip), vehicle: saline) was 111 % of control [survivor count not shown], the T/C (dose: 0.8 mg/kg/injection, schedule: Q01DX009 (ip), vehicle: other) was 134 [survivor count not shown], 138 [survivor count not shown], 153 [survivor count not shown], 159 % of control [survivor count not shown] and the T/C (dose: 0.8 mg/kg/injection, schedule: Q01DX013 (im), vehicle: saline) was 141 % of control [survivor count not shown]. For the same compound, the T/C (dose: 0.8 mg/kg/injection, schedule: Q01DX013 (ip), vehicle: saline) was 131 % of control [survivor count not shown], the T/C (dose: 0.8 mg/kg/injection, schedule: Q01DX013 (oral), vehicle: saline) was 108 % of control [survivor count not shown] and the T/C (dose: 0.8 mg/kg/injection, schedule: Q#A X026 (ip), vehicle: saline) was 132 % of control [survivor count not shown]. The T/C (dose: 1.0 mg/kg/injection, schedule: Q01DX001 (ip), vehicle: saline) was 108 % of control [survivor count not shown], the T/C (dose: 1.0 mg/kg/injection, schedule: Q01DX009 (ip), vehicle: acetone) was 140 % of control [survivor count not shown] and the T/C (dose: 1.0 mg/kg/injection, schedule: Q01DX009 (ip), vehicle: saline, evaluated on day 30) was 129 % of control [survivor count not shown]. The T/C (dose: 1.0 mg/kg/injection, schedule: Q01DX009 (ip), vehicle: saline, evaluated on day 60) was 125 % of control [survivor count not shown], the T/C (dose: 1.0 mg/kg/injection, schedule: Q01DX009 (sc), vehicle: saline) was 115 % of control [survivor count not shown] and the T/C (dose: 1.0 mg/kg/injection, schedule: Q02DX005 (ip), vehicle: saline) was 127 % of control [survivor count not shown]. For the same compound, the T/C (dose: 1.0 mg/kg/injection, schedule: Q03DX003 (ip), vehicle: other) was 115 % of control [survivor count not shown], the T/C (dose: 1.0 mg/kg/injection, schedule: Q04DX003 (ip), vehicle: saline) was 115 % of control [survivor count not shown] and the T/C (dose: 1.0 mg/kg/injection, schedule: Q05DX001 (ip), vehicle: saline) was 106 % of control [survivor count not shown]. For the same compound, the T/C (dose: 1.2 mg/kg/injection, schedule: Q01DX009 (ip), vehicle: other) was 150 % of control [survivor count not shown], the T/C (dose: 1.6 mg/kg/injection, schedule: Q01DX009 (ip), vehicle: other) was 94 [survivor count not shown], 151 [survivor count not shown], 153 [survivor count not shown], 159 [survivor count not shown], 198 % of control [survivor count not shown] and the T/C (dose: 1.6 mg/kg/injection, schedule: Q01DX013 (im), vehicle: saline) was 118 % of control [survivor count not shown]. For the same compound, the T/C (dose: 1.6 mg/kg/injection, schedule: Q01DX013 (ip), vehicle: saline) was 145 % of control [survivor count not shown], the T/C (dose: 1.6 mg/kg/injection, schedule: Q01DX013 (sc), vehicle: saline) was 159 % of control [survivor count not shown] and the T/C (dose: 2.0 mg/kg/injection, schedule: Q01DX001 (ip), vehicle: saline, evaluated on day 30) was 113 % of control [survivor count not shown]. For the same compound, the T/C (dose: 2.0 mg/kg/injection, schedule: Q01DX001 (ip), vehicle: saline, evaluated on day 60) was 110 % of control [survivor count not shown], the T/C (dose: 2.0 mg/kg/injection, schedule: Q01DX009 (ip), vehicle: acetone) was 136 % of control [survivor count not shown] and the T/C (dose: 2.0 mg/kg/injection, schedule: Q01DX009 (ip), vehicle: other) was 141 % of control [survivor count not shown]. For the same compound, the T/C (dose: 2.0 mg/kg/injection, schedule: Q01DX009 (ip), vehicle: saline, evaluated on day 30) was 155 % of control [survivor count not shown], the T/C (dose: 2.0 mg/kg/injection, schedule: Q01DX009 (ip), vehicle: saline, evaluated on day 60) was 129 % of control [survivor count not shown] and the T/C (dose: 2.0 mg/kg/injection, schedule: Q01DX009 (sc), vehicle: saline) was 133 % of control [survivor count not shown]. For the same compound, the T/C (dose: 2.0 mg/kg/injection, schedule: Q02DX005 (ip), vehicle: saline) was 125 % of control [survivor count not shown], the T/C (dose: 2.0 mg/kg/injection, schedule: Q03DX003 (ip), vehicle: other) was 108 % of control [survivor count not shown] and the T/C (dose: 2.0 mg/kg/injection, schedule: Q04DX003 (ip), vehicle: saline, evaluated on day 30) was 115 % of control [survivor count not shown]. The T/C (dose: 2.0 mg/kg/injection, schedule: Q04DX003 (ip), vehicle: saline, evaluated on day 60) was 115 % of control [survivor count not shown], the T/C (dose: 2.0 mg/kg/injection, schedule: Q04DX003 (oral), vehicle: saline) was 108 % of control [survivor count not shown] and the T/C (dose: 2.0 mg/kg/injection, schedule: Q05DX001 (ip), vehicle: saline) was 104 % of control [survivor count not shown].
